Data from patent US20160146830A1.
No constants are given. Whether binding was seen depends on the method and setting. Binding can be weak; no strength is given.

B1: scFv clone 8 (VH/Clone ID 8) (scFv)
scFv: QQLEESGDLVKPGGTLTLSCTASGFSFSSSYYMCWVRQAPGKGLEWIACIYTGSGSTNYASWAKGRFTISKSSSTTVTLQMTSLTAADTATYFCARSPSSGSSNLWGPGTLVTVSSGGGGSGGGGSGDVMTQTPASVSAAVGGTVTIKCQASQSISNYLSWYQQKPGQRPKLLIDAASTLASGVPSRFKGSGSGTESTLTISDLECADAATYYCLYGYYGVSSTSVAFGGGTEVVVE
B2: scFv clone 5A2 (scFv)
scFv: QSLEESGDLVKPGSSLTLTCTGSGFSFSNKYWICWVRQAPGKGLEWIGCIYIGNIDNTDYASWAKGRFTISSTSSTTVTLQMTSLTAADTATYFCARNPGGTSNLWGPGTLVTVSSGGGGSGGGGSGAIVLTQTPSSVEAAVGGTVTIKCQASQSIGSILAWYQQKPGQRPKLLIYYASTLASGVPSRFKGSGSGTQFILTISDLECADAATYYCQSYGYSSSGSYGYRNAFGGGTEVVVE
B3: scFv clone 5F4 (scFv)
scFv: QSLEESGDLVKPGSSLTLTCTGSGFSFSNKYWICWVRQAPGKGLEWIGCIYIGNIDNTDYASWAKGRFTISSTSSTTVTLQMTSLTAADTATYFCARNPGGTSNLWGPGTLVTVSSGGGGSGGGGSGDVVMTQTPSSVEAAVGGTVTIKCQASQSIGNVLAWYQQKPGQRPKLLIYLASTLASGVPSRFKGSGSGTQFILTISDLECADAATYYCQSYGYSSSSSYGYRNAFGGGTEVVVK
B4: scFv clone 2 (VH/Clone ID 2) (scFv)
scFv: QEQLEESGGDLVKPEGSLTLTCTASGFSFSSSYWIWWVRQAPGKGLEWIACIYTGSGTTYYANWAKGRFTISKTSSTTVTLQMTSLTAADTATYFCARMDSHSDGFDPWGPGTLVSVSSGGGGSGGGGSGVELTQTPASVSEPVGGTVTIKCQASQNIYSDLAWYQQKPGQPPKRLIYDASKLPSGVPSRFKGSGSGTEYTLTISDLECADAATYYCQTYHDFDVYGVAFGGGTEVVVE
B5: scFv clone 1 (VH/Clone ID 1) (scFv)
scFv: QEQLEESGDLVKPGASLTLTCTASGFSFSSSYYMAWVRQAPGKGLEWIGCMNSGGDTAYASWAKGRFSISKTSSTTMTLQLTSLTAADTATYFCARNVAGYLCAPAFNFRSPGTLVTVSSGGGSGGGSADVMTQTPSSVTAAVGGTVSISCRSSKSVYNNNWLSWYQQKPGQPPKLLIYETSKLPSGVPSRFSGSGSGTQFTLTISDLECDDAATYYCAGGYRSSSDNGFGGGTEVVVK

These binders were tested against Concholepas concholepas hemocyanin (CCH) (Concholepas concholepas) (assay: monoclonal phage ELISA on CCH-coated plates, anti-M13-HRP).

| Binder | binding |
| --- | --- |
| B1 | binds |
| B2 | binds |
| B3 | binds |
| B4 | binds |
| B5 | binds |
